This note sets out measurements from paper PMC2859380.

Results are given in words; binding and its absence hold for the method and conditions named. In cells and extracts the contact can be indirect. Some binding calls cover weakened binding; strength is not graded here.

What all share (experiment): co-IP; pairs tagged with FLAG or HA, co-expressed in Kc167 cells; lysate in radioimmunoprecipitation assay buffer (50 mM Tris pH 7.4, 150 mM NaCl, 0.1% SDS, 0.5% sodium deoxycholate, 1% NP40); immunoprecipitated with anti-FLAG, membranes probed with anti-HA, stripped, probed with anti-FLAG
For test [1], the target named is T1, MED28 (Drosophila melanogaster) (UniProt Q9VBQ9).
T1 sequence: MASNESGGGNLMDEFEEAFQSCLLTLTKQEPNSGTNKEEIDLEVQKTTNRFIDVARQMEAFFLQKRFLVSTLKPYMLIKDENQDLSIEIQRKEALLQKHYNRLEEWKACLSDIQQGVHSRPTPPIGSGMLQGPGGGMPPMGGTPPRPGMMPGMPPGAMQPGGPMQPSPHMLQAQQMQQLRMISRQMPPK

Test [2] deals with T2, MED26 (Drosophila melanogaster) (UniProt Q9V4F9).
T2 sequence: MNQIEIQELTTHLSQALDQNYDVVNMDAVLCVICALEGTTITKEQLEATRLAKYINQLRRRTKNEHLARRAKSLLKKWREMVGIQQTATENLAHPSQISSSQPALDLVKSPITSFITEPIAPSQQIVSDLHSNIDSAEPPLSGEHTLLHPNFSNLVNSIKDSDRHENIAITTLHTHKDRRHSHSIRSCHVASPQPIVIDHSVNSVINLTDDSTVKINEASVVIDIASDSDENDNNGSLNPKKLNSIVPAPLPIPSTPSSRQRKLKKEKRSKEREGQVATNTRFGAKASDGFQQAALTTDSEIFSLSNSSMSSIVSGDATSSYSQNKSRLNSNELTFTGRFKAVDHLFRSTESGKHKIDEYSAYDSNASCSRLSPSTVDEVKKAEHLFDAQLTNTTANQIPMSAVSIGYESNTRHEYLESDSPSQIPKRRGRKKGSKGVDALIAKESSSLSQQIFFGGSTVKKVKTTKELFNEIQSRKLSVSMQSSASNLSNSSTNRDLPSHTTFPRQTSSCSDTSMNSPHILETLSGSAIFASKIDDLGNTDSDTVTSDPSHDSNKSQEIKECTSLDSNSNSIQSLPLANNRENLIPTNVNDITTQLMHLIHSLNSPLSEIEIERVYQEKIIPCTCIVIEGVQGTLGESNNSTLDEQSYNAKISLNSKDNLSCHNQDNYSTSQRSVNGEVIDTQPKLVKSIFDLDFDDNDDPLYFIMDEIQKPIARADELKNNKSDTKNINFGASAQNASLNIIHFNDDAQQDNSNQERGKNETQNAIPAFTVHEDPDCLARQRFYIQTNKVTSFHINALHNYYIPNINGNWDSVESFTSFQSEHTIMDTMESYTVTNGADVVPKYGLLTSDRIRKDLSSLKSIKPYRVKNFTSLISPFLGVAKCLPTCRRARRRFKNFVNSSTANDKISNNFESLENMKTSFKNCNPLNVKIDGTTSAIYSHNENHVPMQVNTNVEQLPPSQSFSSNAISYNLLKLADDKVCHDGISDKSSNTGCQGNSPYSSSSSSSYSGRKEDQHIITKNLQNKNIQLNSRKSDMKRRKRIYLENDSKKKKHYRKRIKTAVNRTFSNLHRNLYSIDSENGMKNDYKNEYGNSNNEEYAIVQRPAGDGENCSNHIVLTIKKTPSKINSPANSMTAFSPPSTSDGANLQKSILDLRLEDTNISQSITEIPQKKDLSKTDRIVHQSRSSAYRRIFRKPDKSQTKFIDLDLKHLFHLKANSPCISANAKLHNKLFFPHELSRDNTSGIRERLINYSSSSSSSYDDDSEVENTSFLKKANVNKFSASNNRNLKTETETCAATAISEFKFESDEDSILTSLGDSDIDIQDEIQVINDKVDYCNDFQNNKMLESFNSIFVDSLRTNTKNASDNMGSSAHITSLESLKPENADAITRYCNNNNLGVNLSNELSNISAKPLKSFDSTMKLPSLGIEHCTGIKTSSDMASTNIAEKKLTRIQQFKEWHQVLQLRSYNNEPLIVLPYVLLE

The target of test [3] is T3, MED4 (Drosophila melanogaster) (UniProt Q9VS38).
T3 sequence: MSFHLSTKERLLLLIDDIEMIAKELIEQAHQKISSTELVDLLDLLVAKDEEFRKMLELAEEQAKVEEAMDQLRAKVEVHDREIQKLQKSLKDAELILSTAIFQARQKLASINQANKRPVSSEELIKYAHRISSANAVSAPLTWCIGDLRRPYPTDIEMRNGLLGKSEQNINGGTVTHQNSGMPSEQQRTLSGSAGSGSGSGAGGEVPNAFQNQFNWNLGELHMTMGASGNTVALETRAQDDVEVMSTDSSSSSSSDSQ

B1: ix (protein, UniProt Q7KBL8 1-188)
chain: MNPNMNMMPMSGPQMMQVMQSSPSGPPGPVQHQQQQPPQPLQQQQQAEKLDNISRVKSLLGPLRESMFLTIRSSAFALQQNNLADNLKRDTGAHHVPRFDKHLEDFYACCDQIEIHLKTAMQCLQQQNSSNHYLPGPVTPMRMETFMPDNAGPISYPTYLNTVRVHIQSAKDIHDTLISAAQNISQAD
In the case of B1, the binding result in test [1] is on record as “binds”.

B2: MED17 (protein, UniProt Q9VEC1 1-642)
chain: MSNSVNISVETTCENQIREIGYDGTELYQPPPTLSESLAKCAARIDFSKTSLDDLKKEEKSAAAAADEDKDATQFQESLWPWDAVRNKLKDALTEICVLSDVISIAKDKRYLVLDPLLEEADDTKPIVQVYSRKKAISQAAQVLLSGAERLRNAHSEQRNRNVSDFHIELLRLRQNWRLKKVSNAIIGDLSYRTAGSKFGMSGTFEVTKAEETGDEDTASSSNSSSSVSGNNGMQLKASSALRVIVPAELQGVAYIKVITQKDQEDLCTAQLNLMGHGPNITAQVGVWQKTLEFAQNVLFCKELFAQLAREAIQLQAPIPHVVIGNQIRATLLPNIQLIISLCHSTTFDSSQPAPINDHDHVLEHSLHQLLREVHYKNSHHPFPHPASAPLGPTKKRMLAGPMAADRETLLDMTKSQTILEQIIAQAQHIFMRKRTQYVLDTLARDVKDPQIVSHWNAMNSPTMSCVKINIVTHGYDAIGRTSLVIHVKERSLKCICRDGRVMRLSYEPQELRDLILCQINSHQISCLISLARCMSWTVLSNSNHLGIGKVEPLGNASSCLLASPNSDRMIAVQIRCDPQIDVKVYIARSPRQDFFPSPLVPEKLWENLGGTFKEVRFDKIEGKSFLNKMEFLMASLTSNTA
Take B2: the binding result in test [2] is reported as “binds”.

B3: MED26 (protein, UniProt Q9V4F9 1-1483)
chain: MNQIEIQELTTHLSQALDQNYDVVNMDAVLCVICALEGTTITKEQLEATRLAKYINQLRRRTKNEHLARRAKSLLKKWREMVGIQQTATENLAHPSQISSSQPALDLVKSPITSFITEPIAPSQQIVSDLHSNIDSAEPPLSGEHTLLHPNFSNLVNSIKDSDRHENIAITTLHTHKDRRHSHSIRSCHVASPQPIVIDHSVNSVINLTDDSTVKINEASVVIDIASDSDENDNNGSLNPKKLNSIVPAPLPIPSTPSSRQRKLKKEKRSKEREGQVATNTRFGAKASDGFQQAALTTDSEIFSLSNSSMSSIVSGDATSSYSQNKSRLNSNELTFTGRFKAVDHLFRSTESGKHKIDEYSAYDSNASCSRLSPSTVDEVKKAEHLFDAQLTNTTANQIPMSAVSIGYESNTRHEYLESDSPSQIPKRRGRKKGSKGVDALIAKESSSLSQQIFFGGSTVKKVKTTKELFNEIQSRKLSVSMQSSASNLSNSSTNRDLPSHTTFPRQTSSCSDTSMNSPHILETLSGSAIFASKIDDLGNTDSDTVTSDPSHDSNKSQEIKECTSLDSNSNSIQSLPLANNRENLIPTNVNDITTQLMHLIHSLNSPLSEIEIERVYQEKIIPCTCIVIEGVQGTLGESNNSTLDEQSYNAKISLNSKDNLSCHNQDNYSTSQRSVNGEVIDTQPKLVKSIFDLDFDDNDDPLYFIMDEIQKPIARADELKNNKSDTKNINFGASAQNASLNIIHFNDDAQQDNSNQERGKNETQNAIPAFTVHEDPDCLARQRFYIQTNKVTSFHINALHNYYIPNINGNWDSVESFTSFQSEHTIMDTMESYTVTNGADVVPKYGLLTSDRIRKDLSSLKSIKPYRVKNFTSLISPFLGVAKCLPTCRRARRRFKNFVNSSTANDKISNNFESLENMKTSFKNCNPLNVKIDGTTSAIYSHNENHVPMQVNTNVEQLPPSQSFSSNAISYNLLKLADDKVCHDGISDKSSNTGCQGNSPYSSSSSSSYSGRKEDQHIITKNLQNKNIQLNSRKSDMKRRKRIYLENDSKKKKHYRKRIKTAVNRTFSNLHRNLYSIDSENGMKNDYKNEYGNSNNEEYAIVQRPAGDGENCSNHIVLTIKKTPSKINSPANSMTAFSPPSTSDGANLQKSILDLRLEDTNISQSITEIPQKKDLSKTDRIVHQSRSSAYRRIFRKPDKSQTKFIDLDLKHLFHLKANSPCISANAKLHNKLFFPHELSRDNTSGIRERLINYSSSSSSSYDDDSEVENTSFLKKANVNKFSASNNRNLKTETETCAATAISEFKFESDEDSILTSLGDSDIDIQDEIQVINDKVDYCNDFQNNKMLESFNSIFVDSLRTNTKNASDNMGSSAHITSLESLKPENADAITRYCNNNNLGVNLSNELSNISAKPLKSFDSTMKLPSLGIEHCTGIKTSSDMASTNIAEKKLTRIQQFKEWHQVLQLRSYNNEPLIVLPYVLLE
With B3, the binding result in test [3] is on record as “binds”.

B4: MED6 (protein, UniProt Q8MSX2 1-249)
chain: MASRQMTNDHLRLSWHDTQMMATLSPQTVMDYFCRKSNPFYDHMCNNETVRMQRLGPEHLHNMIGLEYILLHVAEPILYVIRKQHRHNPSEATPIADYYIIGGTVYKAPDLANVINSRILNTVVNLQSAFEEASSYARYHPNKGYTWDFSSNKVFSDRSKSDKKDANSAKDENSGTLFQKQRVDMLLAELLRKFPPPIPPMLQNLQQPPPAGDDLNTARNASEMNNATGPLDIKTEGVDMKPPPEKKSK
Take B4: the binding entry in test [2] was “no binding”.
